In article PMC12866797, “Targeting DESI2 as a Novel Therapeutic Strategy for JAK2‐Mutant Leukemias” (Advanced Science, 2025) one finds binding data, which are given here for two substances.

By UniProt entry, the sequences of proteins in these tests, tags left out. Where a name states a change or a piece, a line headed by the entry shows the natural chain unless it says otherwise.
UniProt O60674: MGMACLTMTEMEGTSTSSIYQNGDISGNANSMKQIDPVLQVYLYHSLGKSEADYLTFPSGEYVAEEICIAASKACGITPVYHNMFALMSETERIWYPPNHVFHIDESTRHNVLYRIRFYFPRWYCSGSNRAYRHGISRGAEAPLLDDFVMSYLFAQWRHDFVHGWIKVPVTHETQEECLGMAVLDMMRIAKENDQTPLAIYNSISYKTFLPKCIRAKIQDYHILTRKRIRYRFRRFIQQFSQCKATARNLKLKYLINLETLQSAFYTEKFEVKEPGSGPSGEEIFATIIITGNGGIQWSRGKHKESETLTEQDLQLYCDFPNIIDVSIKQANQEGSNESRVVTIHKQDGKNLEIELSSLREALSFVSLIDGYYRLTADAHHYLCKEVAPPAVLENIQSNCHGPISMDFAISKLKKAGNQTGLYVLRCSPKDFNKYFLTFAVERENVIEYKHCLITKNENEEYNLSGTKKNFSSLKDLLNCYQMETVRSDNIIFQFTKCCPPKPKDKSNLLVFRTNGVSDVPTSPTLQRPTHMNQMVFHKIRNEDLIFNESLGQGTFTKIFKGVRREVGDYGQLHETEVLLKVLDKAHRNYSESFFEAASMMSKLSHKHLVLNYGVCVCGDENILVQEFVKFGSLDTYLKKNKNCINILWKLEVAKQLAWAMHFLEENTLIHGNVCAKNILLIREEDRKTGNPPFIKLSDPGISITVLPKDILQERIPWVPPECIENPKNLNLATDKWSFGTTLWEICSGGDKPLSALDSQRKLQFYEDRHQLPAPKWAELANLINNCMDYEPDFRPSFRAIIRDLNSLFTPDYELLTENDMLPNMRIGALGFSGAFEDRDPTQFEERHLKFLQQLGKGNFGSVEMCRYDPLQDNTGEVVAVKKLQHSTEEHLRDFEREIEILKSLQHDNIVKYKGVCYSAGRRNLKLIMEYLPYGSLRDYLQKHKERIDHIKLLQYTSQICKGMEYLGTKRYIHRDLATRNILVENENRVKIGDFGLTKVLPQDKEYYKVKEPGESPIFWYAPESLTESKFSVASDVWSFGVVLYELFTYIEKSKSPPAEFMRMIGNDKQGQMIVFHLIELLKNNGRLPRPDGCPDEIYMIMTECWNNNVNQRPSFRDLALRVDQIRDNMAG
UniProt Q9BSY9: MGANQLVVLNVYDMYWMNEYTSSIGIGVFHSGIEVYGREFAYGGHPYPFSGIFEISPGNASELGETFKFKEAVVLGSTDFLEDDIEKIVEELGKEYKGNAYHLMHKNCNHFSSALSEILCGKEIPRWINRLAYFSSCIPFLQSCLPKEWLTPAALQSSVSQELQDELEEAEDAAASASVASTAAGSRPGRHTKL
UniProt P08238: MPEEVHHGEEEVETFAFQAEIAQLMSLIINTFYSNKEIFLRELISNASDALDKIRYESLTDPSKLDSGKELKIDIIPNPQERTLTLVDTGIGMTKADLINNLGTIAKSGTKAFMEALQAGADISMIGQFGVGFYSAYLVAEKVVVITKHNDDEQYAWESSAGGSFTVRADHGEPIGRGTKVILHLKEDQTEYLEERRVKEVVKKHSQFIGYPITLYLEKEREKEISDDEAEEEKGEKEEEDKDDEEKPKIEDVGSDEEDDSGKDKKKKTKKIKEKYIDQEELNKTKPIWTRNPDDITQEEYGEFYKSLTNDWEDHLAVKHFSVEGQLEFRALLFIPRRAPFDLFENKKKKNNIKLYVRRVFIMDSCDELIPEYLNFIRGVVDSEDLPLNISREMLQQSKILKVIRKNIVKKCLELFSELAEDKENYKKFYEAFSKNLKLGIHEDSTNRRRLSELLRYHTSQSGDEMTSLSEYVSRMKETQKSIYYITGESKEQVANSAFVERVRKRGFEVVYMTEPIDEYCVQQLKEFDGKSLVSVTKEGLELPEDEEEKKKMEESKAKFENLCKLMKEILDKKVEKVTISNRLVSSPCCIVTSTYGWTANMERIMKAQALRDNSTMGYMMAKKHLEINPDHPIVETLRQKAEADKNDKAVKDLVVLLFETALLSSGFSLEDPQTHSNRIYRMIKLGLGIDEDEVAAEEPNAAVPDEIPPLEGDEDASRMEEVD

The target in this assay is JAK2-V617F (endogenous, HEL cells) (human (endogenous in HEL)) (UniProt O60674). The assay can be described thus: affinity purification with mass spectrometry; anti-JAK2 or IgG immunoprecipitation from lysates of HEL (JAK2-V617F) and K562 (JAK2-WT) cells, LC-MS of the co-precipitated proteins.

These are yes or no findings as the source states them, for the method shown. Binding seen in cells or lysates may run through a third protein. These calls come from enrichment with a bait or labelling near it, and not all partners need be listed.

Turning to “DESI2 (endogenous, human cell lines) (from UniProt Q9BSY9 1-194) (enzyme)”, the binding entry was “binds”.
Take “HSP90AB1 (endogenous, HEL cells) (from UniProt P08238 1-724)”: the binding entry is “binds”.
